# Test results published in patent US4510142A, “Derivatives of biphenyl alkyl carboxylates and their use as medicaments” (Pierre Fabre S.A., priority 1981, dated 1985).
# Assay: in vivo
# Conditions: mouse, po
# Protocol: A toxicity study was carried out on conventional mice weighing about 20 grams.
# The compounds corresponding to the general formula I according to the present invention and the pharmaceutically acceptable salts thereof were administered orally. The DL50 was calculated according to the method by L. C. Miller and M. L. Tainter--Proc. Soc. Exper.
smiles,measurement,value
COc1ccc2cc([C@H](C)C(=O)O)ccc2c1 [Naproxen],LD50,400 mg/kg
